Experimental data from patent US20230174690A1, “COMPOSITIONS AND METHODS FOR SINGLE-STEP MULTIPURPOSE SURFACE FUNCTIONALIZATION” (Rutgers, The State University of New Jersey, priority 2019, published 2023).

Test: Modified MicroBCA assay of Cu(I) production from Cu(II)
Details: 10 mM compound with CuSO4 5 mM; 37° C., 30 min

C#CCOCCOCCNC(=O)[C@@H](N)Cc1ccc(O[Si](C)(C)C(C)(C)C)c(O[Si](C)(C)C(C)(C)C)c1 [S3, (5)-2-amino-3-(3,4-bis((tert-butyldimethylsilyl)oxy)phenyl)-N-(2-(2-(prop-2-yn-1-yloxy)ethoxy)ethyl)-propanamide]
Cu(I) production (violet colour of the Cu(I)-BCA complex): no color formation was observed
